Results are given in words; binding and its absence hold for the method and conditions named. In cells and extracts the contact can be indirect. Some binding calls cover weakened binding; strength is not graded here. Where a sequence is shown, tags or fusion partners need not be part of it.
T1: FBXL4 [R482W]-3xFlag (human) (UniProt Q9UKA2)
T1 sequence: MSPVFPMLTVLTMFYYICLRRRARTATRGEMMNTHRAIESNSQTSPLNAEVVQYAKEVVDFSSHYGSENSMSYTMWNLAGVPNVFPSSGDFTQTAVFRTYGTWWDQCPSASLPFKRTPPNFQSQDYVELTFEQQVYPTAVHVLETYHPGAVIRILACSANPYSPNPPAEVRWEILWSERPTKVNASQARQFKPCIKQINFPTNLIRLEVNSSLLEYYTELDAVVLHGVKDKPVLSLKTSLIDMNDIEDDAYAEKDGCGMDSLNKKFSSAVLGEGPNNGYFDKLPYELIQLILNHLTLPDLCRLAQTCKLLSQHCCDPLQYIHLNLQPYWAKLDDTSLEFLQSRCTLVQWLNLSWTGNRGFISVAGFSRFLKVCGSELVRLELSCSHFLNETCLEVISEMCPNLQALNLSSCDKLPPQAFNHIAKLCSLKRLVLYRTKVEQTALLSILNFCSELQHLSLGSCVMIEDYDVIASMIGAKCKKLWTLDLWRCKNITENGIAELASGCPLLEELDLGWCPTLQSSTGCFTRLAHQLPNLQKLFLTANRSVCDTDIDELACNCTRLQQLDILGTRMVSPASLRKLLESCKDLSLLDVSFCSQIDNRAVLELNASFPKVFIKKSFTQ

Sequences of proteins named here, by UniProt entry; tags and fusion partners are left off.
UniProt Q12983: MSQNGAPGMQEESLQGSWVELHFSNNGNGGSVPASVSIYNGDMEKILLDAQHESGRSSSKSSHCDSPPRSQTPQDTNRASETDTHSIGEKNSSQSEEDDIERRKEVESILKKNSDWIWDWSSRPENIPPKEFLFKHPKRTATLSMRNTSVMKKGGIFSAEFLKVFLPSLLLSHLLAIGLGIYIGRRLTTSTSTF
UniProt O60238: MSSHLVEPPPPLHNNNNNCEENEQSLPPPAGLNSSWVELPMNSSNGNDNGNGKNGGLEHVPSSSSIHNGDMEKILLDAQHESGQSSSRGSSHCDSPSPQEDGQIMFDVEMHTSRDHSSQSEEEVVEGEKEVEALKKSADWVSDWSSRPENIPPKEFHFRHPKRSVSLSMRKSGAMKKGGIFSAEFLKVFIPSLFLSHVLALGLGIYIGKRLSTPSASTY
UniProt P63208: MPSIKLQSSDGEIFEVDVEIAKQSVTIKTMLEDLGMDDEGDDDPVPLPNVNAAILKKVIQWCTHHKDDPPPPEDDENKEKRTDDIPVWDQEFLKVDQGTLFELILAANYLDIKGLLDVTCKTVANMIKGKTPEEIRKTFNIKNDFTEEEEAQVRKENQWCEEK

T2: FBXL4-3xFlag (human) (UniProt Q9UKA2)
T2 sequence: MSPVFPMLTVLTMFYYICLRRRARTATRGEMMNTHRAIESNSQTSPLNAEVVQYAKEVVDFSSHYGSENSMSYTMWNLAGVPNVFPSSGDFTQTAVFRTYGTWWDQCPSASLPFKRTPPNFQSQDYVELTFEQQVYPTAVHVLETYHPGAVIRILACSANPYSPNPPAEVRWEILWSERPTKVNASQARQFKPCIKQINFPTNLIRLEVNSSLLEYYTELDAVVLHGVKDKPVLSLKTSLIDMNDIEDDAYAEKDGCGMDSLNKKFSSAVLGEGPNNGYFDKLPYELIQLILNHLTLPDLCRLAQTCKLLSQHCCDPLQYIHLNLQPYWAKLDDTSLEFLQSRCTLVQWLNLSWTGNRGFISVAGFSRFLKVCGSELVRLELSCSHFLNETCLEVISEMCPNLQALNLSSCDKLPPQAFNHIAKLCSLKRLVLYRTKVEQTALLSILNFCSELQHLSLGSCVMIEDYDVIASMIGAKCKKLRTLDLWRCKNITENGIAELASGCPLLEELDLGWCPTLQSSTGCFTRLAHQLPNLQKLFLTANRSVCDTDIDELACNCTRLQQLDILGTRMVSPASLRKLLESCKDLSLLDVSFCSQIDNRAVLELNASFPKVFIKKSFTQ


Key:
[1] = biological target: T1, FBXL4 [R482W]-3xFlag (human); assay: co-IP; Flag M2 affinity gel, 2 h, on lysates of transfected hTERT-RPE1 FlpIN TREX cells; NP40 buffer (0.5% NP40, 25 mM Tris pH 7.5, 100 mM NaCl, 50 mM NaF); eluted with Flag peptide; blotted for Flag and GFP or SKP1
FBXL4-3xFlag (human) = biological target: T2, FBXL4-3xFlag (human); assay: as above
GFP-BNIP3 = GFP-BNIP3 (UniProt Q12983); assay: co-IP; GFP nano-trap (GFP-nanobody) beads, 1 h, on lysates of co-transfected hTERT-RPE1 FlpIN TREX cells; NP40 buffer (0.5% NP40, 25 mM Tris pH 7.5, 100 mM NaCl, 50 mM NaF); eluted in sample buffer; blotted for Flag and GFP
GFP-NIX = GFP-NIX (UniProt O60238); assay: as above

Row | binding [1] | binding (FBXL4-3xFlag (human)) | binding (GFP-BNIP3) | binding (GFP-NIX) | Molecule
1 | binds | binds | – | – | SKP1 (from UniProt P63208 1-163)
2 | – | – | binds | binds | FBXL4-3xFlag (protein, UniProt Q9UKA2 1-621) MSPVFPMLTVLTMFYYICLRRRARTATRGEMMNTHRAIESNSQTSPLNAEVVQYAKEVVDFSSHYGSENSMSYTMWNLAGVPNVFPSSGDFTQTAVFRTYGTWWDQCPSASLPFKRTPPNFQSQDYVELTFEQQVYPTAVHVLETYHPGAVIRILACSANPYSPNPPAEVRWEILWSERPTKVNASQARQFKPCIKQINFPTNLIRLEVNSSLLEYYTELDAVVLHGVKDKPVLSLKTSLIDMNDIEDDAYAEKDGCGMDSLNKKFSSAVLGEGPNNGYFDKLPYELIQLILNHLTLPDLCRLAQTCKLLSQHCCDPLQYIHLNLQPYWAKLDDTSLEFLQSRCTLVQWLNLSWTGNRGFISVAGFSRFLKVCGSELVRLELSCSHFLNETCLEVISEMCPNLQALNLSSCDKLPPQAFNHIAKLCSLKRLVLYRTKVEQTALLSILNFCSELQHLSLGSCVMIEDYDVIASMIGAKCKKLRTLDLWRCKNITENGIAELASGCPLLEELDLGWCPTLQSSTGCFTRLAHQLPNLQKLFLTANRSVCDTDIDELACNCTRLQQLDILGTRMVSPASLRKLLESCKDLSLLDVSFCSQIDNRAVLELNASFPKVFIKKSFTQ
3 | – | – | binds | binds | FBXL4 [R482W]-3xFlag (protein, UniProt Q9UKA2 1-621) MSPVFPMLTVLTMFYYICLRRRARTATRGEMMNTHRAIESNSQTSPLNAEVVQYAKEVVDFSSHYGSENSMSYTMWNLAGVPNVFPSSGDFTQTAVFRTYGTWWDQCPSASLPFKRTPPNFQSQDYVELTFEQQVYPTAVHVLETYHPGAVIRILACSANPYSPNPPAEVRWEILWSERPTKVNASQARQFKPCIKQINFPTNLIRLEVNSSLLEYYTELDAVVLHGVKDKPVLSLKTSLIDMNDIEDDAYAEKDGCGMDSLNKKFSSAVLGEGPNNGYFDKLPYELIQLILNHLTLPDLCRLAQTCKLLSQHCCDPLQYIHLNLQPYWAKLDDTSLEFLQSRCTLVQWLNLSWTGNRGFISVAGFSRFLKVCGSELVRLELSCSHFLNETCLEVISEMCPNLQALNLSSCDKLPPQAFNHIAKLCSLKRLVLYRTKVEQTALLSILNFCSELQHLSLGSCVMIEDYDVIASMIGAKCKKLWTLDLWRCKNITENGIAELASGCPLLEELDLGWCPTLQSSTGCFTRLAHQLPNLQKLFLTANRSVCDTDIDELACNCTRLQQLDILGTRMVSPASLRKLLESCKDLSLLDVSFCSQIDNRAVLELNASFPKVFIKKSFTQ

— PMC10308357
